## Results of single-concentration screens

The chains behind the UniProt entries cited, without tags or fusion partners. Residues count along the entry.
UniProt Q4DA54, 1-478: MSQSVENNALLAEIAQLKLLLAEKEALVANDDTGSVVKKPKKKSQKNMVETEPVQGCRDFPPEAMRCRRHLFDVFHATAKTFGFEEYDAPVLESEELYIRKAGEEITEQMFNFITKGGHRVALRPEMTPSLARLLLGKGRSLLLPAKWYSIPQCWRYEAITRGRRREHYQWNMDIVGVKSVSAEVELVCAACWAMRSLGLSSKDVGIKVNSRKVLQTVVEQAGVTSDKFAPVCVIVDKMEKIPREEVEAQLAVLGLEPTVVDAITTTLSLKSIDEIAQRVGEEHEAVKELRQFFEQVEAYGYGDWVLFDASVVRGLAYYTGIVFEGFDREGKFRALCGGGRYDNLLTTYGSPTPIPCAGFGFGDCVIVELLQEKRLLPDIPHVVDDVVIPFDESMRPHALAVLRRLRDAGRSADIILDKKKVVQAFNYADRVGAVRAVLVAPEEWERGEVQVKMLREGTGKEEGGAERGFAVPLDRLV
UniProt P9WFT3, whole entry: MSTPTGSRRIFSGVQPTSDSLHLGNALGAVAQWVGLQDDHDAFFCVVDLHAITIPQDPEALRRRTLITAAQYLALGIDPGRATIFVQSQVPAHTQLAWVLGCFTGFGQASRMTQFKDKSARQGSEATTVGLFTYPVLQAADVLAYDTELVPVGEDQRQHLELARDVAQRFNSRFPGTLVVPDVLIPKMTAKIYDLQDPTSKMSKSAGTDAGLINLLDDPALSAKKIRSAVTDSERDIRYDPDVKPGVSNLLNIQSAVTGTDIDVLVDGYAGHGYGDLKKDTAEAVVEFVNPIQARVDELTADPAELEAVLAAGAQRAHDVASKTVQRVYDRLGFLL
UniProt I6X8D2, whole entry: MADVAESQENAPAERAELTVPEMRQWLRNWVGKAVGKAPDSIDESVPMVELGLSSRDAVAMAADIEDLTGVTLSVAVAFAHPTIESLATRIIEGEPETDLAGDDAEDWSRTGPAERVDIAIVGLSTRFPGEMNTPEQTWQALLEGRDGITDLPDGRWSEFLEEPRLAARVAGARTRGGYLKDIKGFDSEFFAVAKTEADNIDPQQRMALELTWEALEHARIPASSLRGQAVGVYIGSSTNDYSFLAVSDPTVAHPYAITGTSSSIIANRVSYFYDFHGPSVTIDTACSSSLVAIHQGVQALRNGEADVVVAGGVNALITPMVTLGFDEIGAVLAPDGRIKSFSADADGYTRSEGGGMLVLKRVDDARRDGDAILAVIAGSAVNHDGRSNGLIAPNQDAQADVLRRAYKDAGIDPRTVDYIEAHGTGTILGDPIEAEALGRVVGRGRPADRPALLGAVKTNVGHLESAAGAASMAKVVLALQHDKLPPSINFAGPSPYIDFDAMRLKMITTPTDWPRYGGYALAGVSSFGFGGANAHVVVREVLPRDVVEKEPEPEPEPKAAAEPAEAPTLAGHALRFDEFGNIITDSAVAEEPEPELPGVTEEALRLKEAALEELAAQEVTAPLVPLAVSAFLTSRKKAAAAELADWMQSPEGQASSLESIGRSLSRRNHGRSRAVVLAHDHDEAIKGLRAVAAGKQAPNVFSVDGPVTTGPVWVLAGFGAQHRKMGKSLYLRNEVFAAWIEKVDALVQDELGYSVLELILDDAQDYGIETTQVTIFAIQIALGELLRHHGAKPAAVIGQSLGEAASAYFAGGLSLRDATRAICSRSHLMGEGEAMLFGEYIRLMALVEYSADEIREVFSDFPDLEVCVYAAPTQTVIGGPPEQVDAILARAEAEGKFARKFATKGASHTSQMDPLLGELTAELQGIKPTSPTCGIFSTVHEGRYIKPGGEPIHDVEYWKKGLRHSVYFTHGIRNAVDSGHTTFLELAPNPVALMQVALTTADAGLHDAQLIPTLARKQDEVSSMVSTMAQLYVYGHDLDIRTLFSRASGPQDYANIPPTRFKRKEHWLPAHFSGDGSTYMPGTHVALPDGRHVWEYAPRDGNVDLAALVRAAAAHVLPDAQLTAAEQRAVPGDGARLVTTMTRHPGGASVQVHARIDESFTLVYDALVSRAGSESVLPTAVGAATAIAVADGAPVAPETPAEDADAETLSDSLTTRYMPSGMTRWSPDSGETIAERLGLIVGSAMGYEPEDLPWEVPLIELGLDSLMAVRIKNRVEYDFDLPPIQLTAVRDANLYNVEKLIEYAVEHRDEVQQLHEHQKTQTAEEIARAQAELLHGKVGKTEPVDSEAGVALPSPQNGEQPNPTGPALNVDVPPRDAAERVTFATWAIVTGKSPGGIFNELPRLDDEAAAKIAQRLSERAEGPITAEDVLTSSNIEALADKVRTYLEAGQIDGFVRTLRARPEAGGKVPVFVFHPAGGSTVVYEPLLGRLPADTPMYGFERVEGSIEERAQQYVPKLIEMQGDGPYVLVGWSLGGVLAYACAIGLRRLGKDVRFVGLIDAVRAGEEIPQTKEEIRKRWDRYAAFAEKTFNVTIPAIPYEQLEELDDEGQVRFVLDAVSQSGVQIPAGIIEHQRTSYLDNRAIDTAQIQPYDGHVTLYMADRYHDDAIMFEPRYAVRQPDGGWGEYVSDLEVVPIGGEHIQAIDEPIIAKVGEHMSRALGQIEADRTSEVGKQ
UniProt Q8IDJ8, 1-583: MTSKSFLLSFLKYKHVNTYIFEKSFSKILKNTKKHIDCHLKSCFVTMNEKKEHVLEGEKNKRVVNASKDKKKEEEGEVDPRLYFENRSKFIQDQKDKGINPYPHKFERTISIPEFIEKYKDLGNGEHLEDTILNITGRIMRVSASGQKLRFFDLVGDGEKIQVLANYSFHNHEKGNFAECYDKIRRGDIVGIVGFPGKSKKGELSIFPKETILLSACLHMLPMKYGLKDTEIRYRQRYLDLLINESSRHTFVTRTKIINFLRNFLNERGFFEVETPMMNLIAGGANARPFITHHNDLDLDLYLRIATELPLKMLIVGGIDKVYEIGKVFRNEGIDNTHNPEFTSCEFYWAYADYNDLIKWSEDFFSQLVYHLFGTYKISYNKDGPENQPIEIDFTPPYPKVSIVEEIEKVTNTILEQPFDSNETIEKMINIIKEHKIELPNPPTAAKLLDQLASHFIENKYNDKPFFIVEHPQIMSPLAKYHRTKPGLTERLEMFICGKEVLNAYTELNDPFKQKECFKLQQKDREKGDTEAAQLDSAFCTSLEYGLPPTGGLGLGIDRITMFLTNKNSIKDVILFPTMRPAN

TcHisRS: 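Enzyme assay of histidyl-tRNA synthetase; the read-out is not stated. Target: Histidine-tRNA ligase, Trypanosoma cruzi CL Brener (UniProt Q4DA54). Tested at 30 µM. Direction is inferred from retests: higher values go with stronger inhibition. Of about 69,000 compounds tested this way, about 31 (0.045%) reached 50% or more in at least one test.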
MtTrpRS: 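Enzyme assay of tryptophanyl-tRNA synthetase; the read-out is not stated. Target: Tryptophan-tRNA ligase, Mycobacterium tuberculosis (UniProt P9WFT3). Compounds at 10 µM. Higher most likely means stronger inhibition; the record gives no direction and few retests gave an IC50. Size under these conditions: about 65,000 compounds, about 64 of them at 50% or above in at least one test.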
Pks13 thioesterase: 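Enzyme assay of the thioesterase domain of polyketide synthase 13; the read-out is not stated. Target: Polyketide synthase Pks13, Mycobacterium tuberculosis (UniProt I6X8D2). Compounds at 30 µM. Higher reads as stronger inhibition (inferred from which compounds were picked for retests). Of about 67,000 compounds tested this way, about 300 (0.46%) reached 50% or more in at least one test.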
PfKRS1: 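Lysine-tRNA ligase, Plasmodium falciparum 3D7 (UniProt Q8IDJ8). Enzyme assay of the cytosolic lysyl-tRNA synthetase in 384-well plates, read by luminescence. Compounds at 30 µM. Higher reads as stronger inhibition, judged from the few compounds that gave an IC50. Size under these conditions: about 69,000 compounds, about 49 of them at 50% or above in at least one test.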
Toxoplasma: 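Assay of Toxoplasma gondii numbers, read through their beta-galactosidase reporter with a colour substrate. Tested at 10 µM. The record gives no direction; the compounds picked for IC50 retests had high values, so higher reads as fewer parasites. Size under these conditions: about 67,000 compounds, about 260 of them at 50% or above in at least one test.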

The filed quantity is “Percent Effect” (%).
The record does not define 0% and 100%; most values in the screen are far below 50% and negative numbers occur (in some assays of this library far below -100).
Compounds were drawn at random from those tested, without regard to their results.
A dash means the value is not listed here; it may have been measured.

| # | structure | TcHisRS | MtTrpRS | Pks13 thioesterase | PfKRS1 | Toxoplasma |
|---|---|---|---|---|---|---|
| 1 | `NC(=O)NCCC(=O)NCc1nn(-c2ccccc2)c2c1CCC2` | 3.529 | 0.104 | -7.571 | -0.1201 | -34.62 |
| 2 | `CC(C)c1nn(C)c(N(C)C)c1CNC1CCCOc2ccccc21` (stereo unspecified) | 0 | 0.7897 | -17.4 | -3.566 | 6.09 |
| 3 | `NC(=O)Nc1cccc(CNC(=O)CCCc2ccccc2)c1` | 8.081 | -3.749 | -5.29 | 2.116 | -0.177 |
| 4 | `Clc1ccccc1C1(c2ccnc(-c3ncccn3)n2)CCNCC1` | 6.695 | -0.2486 | -13.1 | 6.763 | 5.922 |
| 5 | `O=c1[nH]nc2c(S(=O)(=O)N3CCN(c4ccc(F)cc4)CC3)cccn12` | 8 | -0.5693 | -3.859 | -1.226 | 0.8403 |
| 6 | `COCCN1CCN(Cc2nnc(-c3occc3C)o2)CC1` | 8.671 | 0.9518 | -20.57 | 0.4131 | 1.602 |
| 7 | `O=C(CCNCc1cccc2c1OCCCO2)NC1CCCC1` | 6.173 | 1.891 | -1.823 | 8.708 | -1.49 |
| 8 | `O=S(=O)(NCC1CCN(c2ccccn2)CC1)c1ccccc1F` | 0 | 8.71 | 29.76 | 1.807 | -1.552 |
| 9 | `Cc1ccc(S(=O)(=O)N2C[C@H]3C[C@H](NC(=O)C(C)C)[C@H]3C2)cc1` | 5.993 | - | -8.244 | -1.057 | - |
| 10 | `CCNc1ncc2c(n1)CN(c1ccc(C)c(C)c1)C2=O` | -1.739 | -0.6477 | -6.96 | 3.016 | 51.11 |
| 11 | `CCSC1=Nc2c(cnn2-c2ccc(Cl)cc2)C2=NCCCN12` | 0.5917 | 0.9507 | -8.429 | 2.077 | 10.49 |
| 12 | `CC(C)(C)CN1Cc2cc3c(cc2NCCC1=O)OCO3` | -1.156 | - | -21.1 | 0.2532 | -13.3 |
| 13 | `O=C(NC1CC1)[C@H]1CN(Cc2ccc3c(c2)OCO3)C[C@H]2OCC[C@@H]12` | 6.952 | -3.456 | -32.05 | 0.7763 | - |
| 14 | `O=C(NCCc1ccccn1)c1[nH]nc2c1CCCC2` | 3.727 | 0.2712 | -11.23 | 5.287 | -21.74 |
| 15 | `[H][C@@]12CCCO[C@]1([H])[C@H](NC(=O)C1CC1)CN2Cc1cccs1` | - | - | - | - | -1.175 |
| 16 | `Cc1nc2cc(C3CCN(C(=O)c4ccccn4)CC3)nn2c(O)c1C` | -9.848 | 22.96 | -23.44 | 1.656 | 14.17 |
| 17 | `CCc1cc(=O)[nH]c(-c2ccc(NC(C)COC)nc2)n1` (stereo unspecified) | 2.646 | -1.162 | -13.23 | 9.854 | 2.826 |
| 18 | `CC1CCCN(CCCNC(=O)c2cn(C)nc2-c2cccnc2)C1` (stereo unspecified) | 5.419 | -1.791 | -16.44 | 10.91 | 1.299 |
| 19 | `Cc1cc(CN2C[C@@H]3COC[C@]3(CN(C)C)C2)no1` | 4.972 | -0.4359 | -15.5 | -0.6636 | - |
| 20 | `CC(C)(C)c1cc(CN2C[C@H]3CC[C@@H]2CN(Cc2cscn2)C3)n[nH]1` | -4 | -3.704 | -10.34 | -6.671 | - |
| 21 | `CCN1CCC2(CC1)CN(C(C)=O)c1ccc(C)cc12` | 0 | -3.427 | -32.71 | 4.016 | 3.779 |
| 22 | `COCC(=O)N1CCOCC2(CCN(Cc3cccs3)C2)C1.O=C(O)C(F)(F)F` (stereo unspecified) | - | - | - | - | 6.365 |
| 23 | `CNC(=O)COc1c(C(C)=O)ccc(Cl)c1Cl` | 3.448 | 0.7261 | 2.978 | 6.268 | 5.508 |
| 24 | `CC(CS(C)(=O)=O)N(C(=O)Nc1ccc(F)cc1F)C1CC1` (stereo unspecified) | 5.172 | 5.705 | -2.143 | 2.514 | -1.016 |
| 25 | `Clc1ccc(-n2cc(CNC3CCc4ncnn4C3)cn2)cc1` (stereo unspecified) | 1.88 | 3.996 | -0.8174 | 3.339 | -13.78 |
| 26 | `CC(C)CN(CC(O)c1ccc(F)cc1)C(=O)c1cc[nH]n1` (stereo unspecified) | 8.287 | -5.804 | -17.73 | 2.551 | -3.081 |
| 27 | `Cn1nc(C#N)c2c1CN(C(=O)c1cccnc1)CCC2` | 2.174 | 11.14 | -1.97 | -5.73 | - |
| 28 | `Cc1noc(C)c1CCCNC(=O)Nc1cccc([S+](C)[O-])c1` (stereo unspecified) | 1.818 | 1.816 | -3.216 | 1.97 | -14.67 |
| 29 | `Cc1ccc2nc(C)c(C)c(C(=O)N3CCC4(CCO4)CC3)c2c1` | 5.587 | -2.183 | -31.47 | 3.27 | -1.379 |
| 30 | `Cn1nnc2c1C(COCC1CC1)CN(C(=O)Cc1ccccn1)C2` (stereo unspecified) | 2.488 | -1.449 | -7.621 | 1.61 | 1.512 |
| 31 | `Cn1nnc2c1C(COCc1cccnc1)CN(Cc1ccoc1)C2.O=C(O)C(F)(F)F.O=C(O)C(F)(F)F` (stereo unspecified) | - | - | - | - | -0.654 |
| 32 | `Cn1ccnc1C(=O)N1CCC2(CCN2Cc2ccc(F)cc2)C1.O=C(O)C(F)(F)F` (stereo unspecified) | - | - | - | - | 16.09 |
| 33 | `NC(=O)Cn1ccnc1C1CCCN(CCSc2ccccc2)C1` (stereo unspecified) | 5.882 | 1.12 | - | 6.252 | 10.03 |
| 34 | `Cc1ccc(C(=O)N2CC3(CCCCC3)c3cc(C(=O)O)ccc32)cn1` | 2.941 | 1.627 | -24.45 | 2.016 | - |
| 35 | `COCc1cncc2c1CCN(C(=O)c1ccc(C#N)cc1)C2.O=C(O)C(F)(F)F` | - | - | - | - | -6.322 |
| 36 | `O=C(NC1CC1)C1CCCN(c2cc(-n3cncn3)ncn2)C1` (stereo unspecified) | -1.031 | 10.71 | -5.218 | -1.89 | 23.42 |
| 37 | `Cc1csc(N2CCN(C(=O)CCn3cncn3)CC2)n1` | 5.263 | 1.495 | -29.82 | 7.146 | - |
| 38 | `[H][C@@]12CNC(=O)N1CCN(C1CCOCC1)C2` | - | - | - | - | 8.552 |
| 39 | `Cn1cc(C(=O)Nc2ccc3c(c2)N(C(=O)c2ccco2)CC3)nn1` | 3 | 2.375 | -23.67 | -1.576 | 0.9766 |
| 40 | `CN1CCN(C)C(c2nnc3ccc(C(=O)N4CCOCC4)cn23)C1.O=C(O)C(F)(F)F.O=C(O)C(F)(F)F` (stereo unspecified) | - | - | - | - | -1.162 |
| 41 | `CCN1CCO[C@@H]2CN(C(=O)COC3CCCC3)C[C@@H]2C1` | 4.813 | 14.74 | 5.434 | -1.637 | - |
| 42 | `CC(c1ccccc1)N(C)CC(=O)NCCC#N` (stereo unspecified) | 3.448 | -5.972 | -1.475 | 3.265 | -53.54 |
| 43 | `COCC1CN(Cc2c(C)noc2C)Cc2ccnn2C1.O=C(O)C(F)(F)F.O=C(O)C(F)(F)F` (stereo unspecified) | - | - | - | - | -1.49 |
| 44 | `Cc1ccoc1CNCc1nnc2n1CCCC2C(F)(F)F` (stereo unspecified) | 4.598 | -3.194 | 25.84 | 0.07349 | - |
| 45 | `O=c1[nH]c(-c2ccc(F)cc2)nc2c1CCNC2` | -10.99 | -6.74 | -14 | 3.4 | 3.631 |
| 46 | `Cc1occc1C(=O)N1CC[C@@H](N2CCOCC2)[C@@H]1Cc1ccccc1` | 3.825 | -2.013 | -9.356 | -0.2375 | 19.23 |
| 47 | `[H][C@@]12CCCCCN(C)[C@@]1([H])[C@H](c1ccccc1)CN2S(=O)(=O)N(CC)CC` | - | - | - | - | 11.11 |

The values are deposited in ChEMBL (CHEMBL3988442, “University of Dundee, Small-Polar-MMV Screening Library” (2021)).